Results on three molecules are retold here after paper PMC4540474.

B1: TGFβ-activated kinase 1 (TAK1) (protein, UniProt O43318 1-606)
chain: MSTASAASSSSSSSAGEMIEAPSQVLNFEEIDYKEIEVEEVVGRGAFGVVCKAKWRAKDVAIKQIESESERKAFIVELRQLSRVNHPNIVKLYGACLNPVCLVMEYAEGGSLYNVLHGAEPLPYYTAAHAMSWCLQCSQGVAYLHSMQPKALIHRDLKPPNLLLVAGGTVLKICDFGTACDIQTHMTNNKGSAAWMAPEVFEGSNYSEKCDVFSWGIILWEVITRRKPFDEIGGPAFRIMWAVHNGTRPPLIKNLPKPIESLMTRCWSKDPSQRPSMEEIVKIMTHLMRYFPGADEPLQYPCQYSDEGQSNSATSTGSFMDIASTNTSNKSDTNMEQVPATNDTIKRLESKLLKNQAKQQSESGRLSLGASRGSSVESLPPTSEGKRMSADMSEIEARIAATTAYSKPKRGHRKTASFGNILDVPEIVISGNGQPRRRSIQDLTVTGTEPGQVSSRSSSPSVRMITTSGPTSEKPTRSHPWTPDDSTDTNGSDNSIPMAYLTLDHQLQPLAPCPNSKESMAVFEQHCKMAQEYMKVQTEIALLLQRKQELVAELDQDEKDQQNTSRLVQEHKKLLDENKSLSTYYQQCKKQLEVIRSQQQKRQGTS
B2: IKKβ (protein, UniProt O14920 1-756)
chain: MSWSPSLTTQTCGAWEMKERLGTGGFGNVIRWHNQETGEQIAIKQCRQELSPRNRERWCLEIQIMRRLTHPNVVAARDVPEGMQNLAPNDLPLLAMEYCQGGDLRKYLNQFENCCGLREGAILTLLSDIASALRYLHENRIIHRDLKPENIVLQQGEQRLIHKIIDLGYAKELDQGSLCTSFVGTLQYLAPELLEQQKYTVTVDYWSFGTLAFECITGFRPFLPNWQPVQWHSKVRQKSEVDIVVSEDLNGTVKFSSSLPYPNNLNSVLAERLEKWLQLMLMWHPRQRGTDPTYGPNGCFKALDDILNLKLVHILNMVTGTIHTYPVTEDESLQSLKARIQQDTGIPEEDQELLQEAGLALIPDKPATQCISDGKLNEGHTLDMDLVFLFDNSKITYETQISPRPQPESVSCILQEPKRNLAFFQLRKVWGQVWHSIQTLKEDCNRLQQGQRAAMMNLLRNNSCLSKMKNSMASMSQQLKAKLDFFKTSIQIDLEKYSEQTEFGITSDKLLLAWREMEQAVELCGRENEVKLLVERMMALQTDIVDLQRSPMGRKQGGTLDDLEEQARELYRRLREKPRDQRTEGDSQEMVRLLLQAIQSFEKKVRVIYTQLSKTVVCKQKALELLPKVEEVVSLMNEDEKTVVRLQEKRQKELWNLLKIACSKVRGPVSGSPDSMNASRLSQPGQLMSQPSTASNSLPEPAKKSEELVAEAHNLCTLLENAIQDTVREQDQSFTALDWSWLQTEEEEHSCLEQAS
B3: ring finger protein 8 (RNF8) (protein, UniProt O76064 1-485)
chain: MGEPGFFVTGDRAGGRSWCLRRVGMSAGWLLLEDGCEVTVGRGFGVTYQLVSKICPLMISRNHCVLKQNPEGQWTIMDNKSLNGVWLNRARLEPLRVYSIHQGDYIQLGVPLENKENAEYEYEVTEEDWETIYPCLSPKNDQMIEKNKELRTKRKFSLDELAGPGAEGPSNLKSKINKVSCESGQPVKSQGKGEVASTPSDNLDPKLTALEPSKTTGAPIYPGFPKVTEVHHEQKASNSSASQRSLQMFKVTMSRILRLKIQMQEKHEAVMNVKKQTQKGNSKKVVQMEQELQDLQSQLCAEQAQQQARVEQLEKTFQEEEQHLQGLEIAQGEKDLKQQLAQALQEHWALMEELNRSKKDFEAIIQAKNKELEQTKEEKEKMQAQKEEVLSHMNDVLENELQCIICSEYFIEAVTLNCAHSFCSYCINEWMKRKIECPICRKDIKSKTYSLVLDNCINKMVNNLSSEVKERRIVLIRERKAKRLF

No constants are given. Whether binding was seen depends on the method and setting. In cells and extracts the contact can be indirect. Some entries that bind do so weakly or less than the wild type.

For this test, the target named is S-peptide-tagged (S-tagged) HTLV-1 Tax (HTLV-1) (UniProt P03409). The test can be described thus: pull-down; S-tagged Tax captured from cleared lysate of transfected HEK293T cells on S-protein agarose beads, 4 °C overnight; lysis buffer with the deubiquitinase inhibitor PR619; beads washed three times; supernatant and pull-down fractions immunoblotted.
Regarding B1, the binding result is reported as “binds”.
Turning to B2, the binding result is listed as “binds”.
Turning to B3, the binding result is given as “binds”.
